Measured values reported in patent EP1932852B1, “Novel taxane related peptides and uses thereof” (Campiani, Giuseppe, priority 2006, dated 2010).
At least one peptide structure holds a part that was inferred or is arguable (an end, a ring closure or a residue). Where no end group is shown, it is not given here.

Tests used:
[1] = system: Purified Bovine brain tubulin; test: Cell free tubulin polymerisation assay (turbidity at 350 nm); assay type: biochemical; settings: all compounds at 10 µM, equimolar with PTX; tubulin 1.0 mg/ml
mitochondria = test: Flow cytometric measurement of Δψm with peptides (Fig. 8); assay type: cell-based; settings: equimolar concentration (10 µM), PTX as positive control

Sequence | tubulin polymerization [1] | leakage of Δψm (mitochondria)
PLIPVYPFVP [PEP-ran, PLIPVYPFVP] | did not change the kinetics of microtubule polymerization | unable to interfere with Δψm
LVPPPPIVPYF [PEP2, LVPPPPIVPYF] | an effect superimposable to that of PTX | 
LVPPPPIVGYF [PEP1, LVPPPPIVGYF] | an effect slightly lower | an effect slightly lower
